± gives the uncertainty stated by the source. Many entries were measured with a wide error.
Assay: self-splicing fitness, log relative to wild type (ln ratio); higher = more splicing; Tetrahymena group I intron in knt gene, E. coli kanamycin selection, DiMSum; sequences stand for … in CUCUCU…GGAGGGAAAAGUUAUCAGGCAUGCACCUGGUAGCUAGUCUUUAAACCAAUAGAUUGCAUCGGUUUAAAAGGCAAGACCGUCAAAUUGCGGGAAAGGGGUCAACAGCCGUUCAGUACCAAGUCUCAGGGGAAACUUUGAGAUGGCCUUGCAAAGGGUAUGGUAAUAAGCUGACGGACAUGGUCCUAACCACGCAGCCAAGUCCUAAGUCAACAGAUCUUCUGUUGAUAUGGAUGCAGUUCACAGACUAAAUGUCGGUCGGGGAAGAUGUAUUCUUCUCAUAAGAUAUAGUCGGACCUCUCCUUAAUGGGAGCUAGCGGAUGAAGUGAUGCAACACUGGAGCCGCUGGGAACUAAUUUGUAUGCGAAAGUAUAUUGAUUAGUUUUGGAGUACUCGUGGUCG
In short: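 Six replicate transformations of E. coli BL21(DE3) with a pET-22b(+) library were grown overnight at 37°C or 30°C. The library randomised all eight P1ex-region intron nucleotides, the intron lying in the knt kanamycin-resistance gene, and plates were LB agar with or without 25 μg/mL kanamycin plus 100 μg/mL carbenicillin, 50 μM IPTG and 0.2% rhamnose. Pooled colonies were amplicon-sequenced on an Illumina HiSeq 2500, and fitness is the DiMSum error-weighted combination of wild-type-normalised replicate fold changes, kanamycin versus none.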

| Sequence | self-splicing fitness (ln) (30 °C) | self-splicing fitness (ln) (37 °C) |
| --- | --- | --- |
| CGAGAGCAAUAUUACGUCGA | -2.37 ± 0.64 | -1.9 ± 0.66 |
| UCCAAGCAAUAUUACGAACC |  | -2.39 ± 1.1 |
| UAGGAGCAAUAUUACGCCUC | -2.96 ± 0.75 | -1.29 ± 0.71 |
| GUUGAGCAAUAUUACGUCUC | -0.631 ± 1.2 |  |
| UCGGAGCAAUAUUACGAGAC | -0.828 ± 0.82 | -1.49 ± 0.71 |
| GCGAAGCAAUAUUACGCUCC | -2.79 ± 1.2 | -0.681 ± 1.4 |
| GAGGAGCAAUAUUACGUGGC |  | -3.4 ± 1 |
| GUGAAGCAAUAUUACGCCAC |  | -2.03 ± 0.81 |
| CGUUAGCAAUAUUACGCUAC |  | -2.91 ± 0.75 |
| GGACAGCAAUAUUACGAUCC | -4.14 ± 0.6 | -1.21 ± 0.56 |
| GUUUAGCAAUAUUACGCCAG | -3.53 ± 0.78 | -1.36 ± 0.69 |
| GGUGAGCAAUAUUACGCUCC |  | -2.08 ± 0.81 |
| GCGGAGCAAUAUUACGAUAA | -3.16 ± 0.76 |  |
| CUAUAGCAAUAUUACGAUAG | -4.21 ± 0.59 |  |
| CCCGAGCAAUAUUACGAAGC |  | -2.39 ± 0.77 |
| UGGAAGCAAUAUUACGCAUU |  | -4.04 ± 0.51 |
| GUUAAGCAAUAUUACGUCAG | -3.43 ± 0.53 |  |
| CUUUAGCAAUAUUACGACUU | -3.28 ± 0.65 |  |
| GGGGAGCAAUAUUACGACUG |  | 0.0946 ± 0.83 |
| CGUGAGCAAUAUUACGAAGA |  | -2.53 ± 0.62 |
| CCGGAGCAAUAUUACGCAGA | -3.62 ± 0.61 | -2.05 ± 0.5 |
| GUGUAGCAAUAUUACGGAGC | -1.85 ± 0.56 |  |
| UAUCAGCAAUAUUACGCCUC | -0.828 ± 1 |  |
| UGUGAGCAAUAUUACGCGGG | -3.65 ± 0.52 |  |
| ACAGAGCAAUAUUACGAGUA | -2.78 ± 0.55 |  |

| Sequence | self-splicing fitness (ln) (30 °C) | self-splicing fitness (ln) (37 °C) |
| --- | --- | --- |
| AUCCAGCAAUAUUACGUCGG | -2.71 ± 0.089 | -2.43 ± 0.13 |
| UGCGAGCAAUAUUACGCAGU | -4.83 ± 0.58 |  |
| UAUGAGCAAUAUUACGAAAC |  | -2.84 ± 0.53 |
| CGCCAGCAAUAUUACGUCCA | -2.91 ± 0.57 |  |
| UACGAGCAAUAUUACGUACC | -4.49 ± 1 |  |
| CAUGAGCAAUAUUACGCCAU |  | -2.19 ± 0.51 |
| GUGUAGCAAUAUUACGCAUC | -4.35 ± 0.51 |  |
| UCUAAGCAAUAUUACGUGUC |  | -3.08 ± 1 |
| UAGCAGCAAUAUUACGCAUC | -4.15 ± 0.47 | -3.39 ± 0.26 |
| AAUGAGCAAUAUUACGGGUC |  | -2.9 ± 0.52 |
| UCUGAGCAAUAUUACGCAGA | -2.65 ± 0.52 | -1.91 ± 0.59 |
| GAGAAGCAAUAUUACGCCGU | -2.18 ± 0.21 | -1.89 ± 0.21 |
| UUUUAGCAAUAUUACGACAC |  | -1.29 ± 1.2 |
| CCUUAGCAAUAUUACGAGCC |  | -1.62 ± 1.1 |
| UCGUAGCAAUAUUACGCUAA | -3.45 ± 0.6 |  |
| UUGGAGCAAUAUUACGAUGG | -1.53 ± 0.21 | -1.54 ± 0.21 |
| AUCGAGCAAUAUUACGUACG | -3.45 ± 0.6 |  |
| UGAUAGCAAUAUUACGGUCU | -0.913 ± 0.12 | -0.257 ± 0.15 |
| CUACAGCAAUAUUACGGACC | -3.72 ± 1 | -2.75 ± 0.53 |
| UCAUAGCAAUAUUACGAAAC |  | -2.45 ± 0.56 |
| CCGAAGCAAUAUUACGCCGA | -3.43 ± 0.53 | -1.94 ± 0.65 |
| CUGGAGCAAUAUUACGGGAA | -2.68 ± 0.31 | -2.36 ± 0.27 |
| CCAGAGCAAUAUUACGUACC | -3.62 ± 0.59 |  |
| CGGAAGCAAUAUUACGAUAU | -3.67 ± 0.52 |  |
| GGCCAGCAAUAUUACGGCUC | -1.31 ± 0.56 | -4.19 ± 0.59 |

Some of the entries so far, bar-delimited:
Sequence | self-splicing fitness (ln) (30 °C) | self-splicing fitness (ln) (37 °C)
GUUGAGCAAUAUUACGUCUC | -0.631 ± 1.2 | 
UCGGAGCAAUAUUACGAGAC | -0.828 ± 0.82 | -1.49 ± 0.71
GCGAAGCAAUAUUACGCUCC | -2.79 ± 1.2 | -0.681 ± 1.4
GAGGAGCAAUAUUACGUGGC |  | -3.4 ± 1
GUGAAGCAAUAUUACGCCAC |  | -2.03 ± 0.81
CGUUAGCAAUAUUACGCUAC |  | -2.91 ± 0.75
GGACAGCAAUAUUACGAUCC | -4.14 ± 0.6 | -1.21 ± 0.56
GUUUAGCAAUAUUACGCCAG | -3.53 ± 0.78 | -1.36 ± 0.69
GGUGAGCAAUAUUACGCUCC |  | -2.08 ± 0.81
GCGGAGCAAUAUUACGAUAA | -3.16 ± 0.76 | 
CUAUAGCAAUAUUACGAUAG | -4.21 ± 0.59 | 
CCCGAGCAAUAUUACGAAGC |  | -2.39 ± 0.77
UGGAAGCAAUAUUACGCAUU |  | -4.04 ± 0.51
GUUAAGCAAUAUUACGUCAG | -3.43 ± 0.53 | 
CUUUAGCAAUAUUACGACUU | -3.28 ± 0.65 | 
GGGGAGCAAUAUUACGACUG |  | 0.0946 ± 0.83
CGUGAGCAAUAUUACGAAGA |  | -2.53 ± 0.62
CCGGAGCAAUAUUACGCAGA | -3.62 ± 0.61 | -2.05 ± 0.5
GUGUAGCAAUAUUACGGAGC | -1.85 ± 0.56 | 
UAUCAGCAAUAUUACGCCUC | -0.828 ± 1 | 
UGUGAGCAAUAUUACGCGGG | -3.65 ± 0.52 | 
ACAGAGCAAUAUUACGAGUA | -2.78 ± 0.55 | 
AUCCAGCAAUAUUACGUCGG | -2.71 ± 0.089 | -2.43 ± 0.13

(further entries)

| Sequence | self-splicing fitness (ln) (30 °C) | self-splicing fitness (ln) (37 °C) |
| --- | --- | --- |
| GUUUAGCAAUAUUACGGAGG |  | -3.08 ± 1 |
| CGAGAGCAAUAUUACGCCUG | -3.12 ± 0.25 | -1.73 ± 0.28 |
| UCGGAGCAAUAUUACGUGCU | -4.16 ± 0.72 |  |
| ACAUAGCAAUAUUACGUCUG | -1.24 ± 0.071 | -0.845 ± 0.09 |
| CGUUAGCAAUAUUACGACCG | -1.13 ± 0.14 | -0.193 ± 0.2 |
| UUUGAGCAAUAUUACGAAUU | -2.47 ± 0.23 | -2.01 ± 0.3 |
| AAAGAGCAAUAUUACGCGCC | -3.82 ± 0.74 | -2.39 ± 0.77 |
| CUGUAGCAAUAUUACGAGCC |  | 0.694 ± 1.1 |
| AGGCAGCAAUAUUACGCCCU |  | -1.83 ± 0.82 |
| UCGGAGCAAUAUUACGCAUC | -3.68 ± 0.53 | -3.44 ± 0.59 |
| CGGAAGCAAUAUUACGAAGU | -3.82 ± 0.6 |  |
| GGAAAGCAAUAUUACGGUUG | -4.49 ± 0.51 |  |
| CCAAAGCAAUAUUACGACCC | -4.44 ± 0.72 |  |
| AGAGAGCAAUAUUACGCGCG | -1.96 ± 0.82 |  |
| CUUGAGCAAUAUUACGCACA |  | -2.13 ± 0.56 |
| GAAGAGCAAUAUUACGAUAC |  | 0.172 ± 0.77 |
| UGGGAGCAAUAUUACGACAG | -2.61 ± 0.53 | -0.778 ± 1.4 |
| CAGAAGCAAUAUUACGGGAC | -4.14 ± 0.72 |  |
| CACGAGCAAUAUUACGAGUC | -4.87 ± 1 |  |
| UGCUAGCAAUAUUACGAACC | 0.635 ± 0.75 |  |
| GAUUAGCAAUAUUACGACGG | -4.45 ± 1 |  |
| UAGCAGCAAUAUUACGCUUC | -3.05 ± 0.34 | -2.25 ± 0.33 |
| GCGGAGCAAUAUUACGAAAG | -2.58 ± 0.57 |  |
| UCCAAGCAAUAUUACGAGAC | -4.46 ± 1 |  |
| UGCUAGCAAUAUUACGUUCC | -3.97 ± 1 |  |

| Sequence | self-splicing fitness (ln) (30 °C) | self-splicing fitness (ln) (37 °C) |
| --- | --- | --- |
| UAGUAGCAAUAUUACGAAAG | -3.93 ± 0.52 |  |
| GUUCAGCAAUAUUACGUCAC | -1.78 ± 0.17 | -1.27 ± 0.17 |
| ACGUAGCAAUAUUACGCCGC |  | -3.46 ± 0.73 |
| GAGUAGCAAUAUUACGCUCU | -3.76 ± 0.52 | -2.43 ± 0.55 |
| GGGUAGCAAUAUUACGGCCC |  | -0.693 ± 1.4 |
| UUCAAGCAAUAUUACGCAAC | -3.92 ± 0.52 |  |
| AUUUAGCAAUAUUACGGGGC |  | -2.08 ± 0.51 |
| UUUUAGCAAUAUUACGGUGU |  | -2.05 ± 0.5 |
| GGACAGCAAUAUUACGAGUU | -3.64 ± 0.19 | -1.24 ± 0.11 |
| CUUCAGCAAUAUUACGCCGG |  | -1.59 ± 0.7 |
| GGCCAGCAAUAUUACGAAGG | -3.63 ± 0.52 |  |
| AGCAAGCAAUAUUACGCAAC |  | -2.62 ± 0.54 |
| UUCUAGCAAUAUUACGGAGG |  | -3.51 ± 0.61 |
| CUUGAGCAAUAUUACGACCC |  | -1.39 ± 1.2 |
| CGCGAGCAAUAUUACGAGUG | -3.46 ± 0.31 | -1.78 ± 0.2 |
| AGGAAGCAAUAUUACGAAAA | -1.71 ± 0.71 |  |
| CGCGAGCAAUAUUACGUCCC |  | -2.47 ± 1.1 |
| AGGUAGCAAUAUUACGAGCC | -0.991 ± 0.021 | -0.862 ± 0.037 |
| GGCUAGCAAUAUUACGCCAU |  | -3.1 ± 0.6 |
| UUUUAGCAAUAUUACGCAGC | -2.45 ± 0.78 | -3.53 ± 1 |
| AUAGAGCAAUAUUACGCAGC | -2.33 ± 0.45 | -2.01 ± 0.56 |
| AAACAGCAAUAUUACGCAUC | -2.82 ± 0.13 | -2.07 ± 0.11 |
| GGUUAGCAAUAUUACGAGAC | -2.36 ± 1.2 |  |

Source: the supplement of paper PMC7877785
